{"source": "PubChem BioAssay AID1224828 | NIAID – 2016", "test": "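Regulators linking TLR4 signalling to p65 nuclear translocation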 (primary screen)", "cells": "mouse RAW264.7 G9 macrophage reporter cells (GFP-p65, Tnf promoter-mCherry)", "reagents": "siRNA pool against mouse genes, 100 nM", "time to read-out": "2 days siRNA transfection, then 40 min LPS before fixation", "conditions": "LPS (Salmonella minnesota R595) at 10 ng/ml", "measurement": "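Microscopy ratio of nuclear to perinuclear-ring GFP-p65 signal, scaled to the plate median; gene score is the average of two replicate robust z-scores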", "direction": "p65 translocation robust z-score: higher = more nuclear NF-kappaB p65 after LPS than the plate median; nuclear/cytoplasmic p65 ratio: higher = more nuclear NF-kappaB p65", "hit rule": "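Called active when z exceeds 3.3 or falls under -1.56 (median of Tlr4 controls), giving activity score of at least 50; no calls for control wells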", "calls": "active = hit (p65 shift raised or lowered); inactive = no clear change", "note": "The deposit covers about 17,000 reagents; shown is an unselected part. 762 of all reagents (4.5%) were called active. 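Active calls include both raised and lowered p65 entry, mostly lowered; wells with fewer than 50 cells lack a z-score.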 Raw values vary from plate to plate and are shown uncorrected. A number with no mark means an inactive call. Some reagents were tested in more than one well and are listed for each."}
{"Gene": "Or13p5 (GeneID 258851)", "p65 translocation robust z-score": 0.72, "nuclear/cytoplasmic p65 ratio, rep 1": 1.78, "nuclear/cytoplasmic p65 ratio, rep 2": 1.47, "low cell count flag": "enough cells to score"}
{"Gene": "Stx3 (GeneID 20908)", "p65 translocation robust z-score": 0.5, "nuclear/cytoplasmic p65 ratio, rep 1": 1.48, "nuclear/cytoplasmic p65 ratio, rep 2": 1.3, "low cell count flag": "enough cells to score"}
{"Gene": "Mob4 (GeneID 19070)", "p65 translocation robust z-score": 2.07, "nuclear/cytoplasmic p65 ratio, rep 1": 1.65, "nuclear/cytoplasmic p65 ratio, rep 2": 1.43, "low cell count flag": "enough cells to score"}
{"Gene": "Npr3 (GeneID 18162)", "p65 translocation robust z-score": 0.62, "nuclear/cytoplasmic p65 ratio, rep 1": 1.6, "nuclear/cytoplasmic p65 ratio, rep 2": 1.68, "low cell count flag": "enough cells to score"}
{"Gene": "Agk (GeneID 69923)", "p65 translocation robust z-score": 0.62, "nuclear/cytoplasmic p65 ratio, rep 1": 1.67, "nuclear/cytoplasmic p65 ratio, rep 2": 1.56, "low cell count flag": "enough cells to score"}
{"Gene": "Agk (GeneID 69923)", "nuclear/cytoplasmic p65 ratio, rep 1": 1.22, "nuclear/cytoplasmic p65 ratio, rep 2": 1.29, "low cell count flag": "fewer than 50 cells per well; well left out of scoring"}
{"Gene": "Rps8 (GeneID 20116)", "p65 translocation robust z-score": -1.34, "nuclear/cytoplasmic p65 ratio, rep 1": 1.21, "nuclear/cytoplasmic p65 ratio, rep 2": 1.09, "low cell count flag": "enough cells to score"}
{"Gene": "C030006K11Rik (GeneID 223665)", "p65 translocation robust z-score": -0.21, "nuclear/cytoplasmic p65 ratio, rep 1": 1.48, "nuclear/cytoplasmic p65 ratio, rep 2": 1.41, "low cell count flag": "enough cells to score"}
{"Gene": "Cd2ap (GeneID 12488)", "p65 translocation robust z-score": 0.71, "nuclear/cytoplasmic p65 ratio, rep 1": 1.58, "nuclear/cytoplasmic p65 ratio, rep 2": 1.46, "low cell count flag": "enough cells to score"}
{"Gene": "D130060J02Rik (GeneID 320266)", "p65 translocation robust z-score": 1.08, "nuclear/cytoplasmic p65 ratio, rep 1": 1.8, "nuclear/cytoplasmic p65 ratio, rep 2": 1.89, "low cell count flag": "enough cells to score"}
{"Gene": "Fam53b (GeneID 77938)", "nuclear/cytoplasmic p65 ratio, rep 1": 1.13, "nuclear/cytoplasmic p65 ratio, rep 2": 1.13, "low cell count flag": "fewer than 50 cells per well; well left out of scoring"}
{"Gene": "Get1 (GeneID 71446)", "p65 translocation robust z-score": -0.24, "nuclear/cytoplasmic p65 ratio, rep 1": 1.51, "nuclear/cytoplasmic p65 ratio, rep 2": 1.22, "low cell count flag": "enough cells to score"}
{"Gene": "Or4a81 (GeneID 258468)", "p65 translocation robust z-score": 1.1, "nuclear/cytoplasmic p65 ratio, rep 1": 1.73, "nuclear/cytoplasmic p65 ratio, rep 2": 1.61, "low cell count flag": "enough cells to score"}
{"Gene": "Top2a (GeneID 21973)", "p65 translocation robust z-score": 0.34, "nuclear/cytoplasmic p65 ratio, rep 1": 1.56, "nuclear/cytoplasmic p65 ratio, rep 2": 1.57, "low cell count flag": "enough cells to score"}

Already shown: 2 of the entries above.
{"Gene": "Agk (GeneID 69923)", "nuclear/cytoplasmic p65 ratio, rep 1": 1.22, "nuclear/cytoplasmic p65 ratio, rep 2": 1.29, "low cell count flag": "fewer than 50 cells per well; well left out of scoring"}
{"Gene": "Rps8 (GeneID 20116)", "p65 translocation robust z-score": -1.34, "nuclear/cytoplasmic p65 ratio, rep 1": 1.21, "nuclear/cytoplasmic p65 ratio, rep 2": 1.09, "low cell count flag": "enough cells to score"}
